From patent publication US10035989B2, “Method for producing polyunsaturated fatty acids in transgenic plants” (BASF Plant Science GmbH, priority 2004, dated 2018)

Columns and labels:
TL16y2 Δ5-elongase = test: Expression of TL16y2 in yeast (feeding experiments, GC); format: cell-based, Thraustochytrium ssp.
Protocol: The yeasts were subsequently plated onto complete uracil dropout minimal medium supplemented with 2% glucose.
The substrate specificity of BioTaurELO1 was determined after expression and feeding of various fatty acids (FIG. 6). […] After the fatty acids had been extracted from the yeasts, they were transmethylated and separated by gas chromatography. The elongation products originating from the two fatty acids which had been fed are identified by arrows.
The functionality and substrate specificity of TL16y2 were determined after expression and feeding of various fatty acids. […] The feeding experiments were carried out in the same manner as described for BioTaurELO1. The substrates which have been fed can be detected in large amounts in all transgenic yeasts. […] This means that the gene TL16y2 has been expressed functionally.

At3g06460 elongase = test: Elongation of EPA by the elongase At3g06460 in yeast; conditions: yeast extracts after feeding of 250 μM EPA
At3g06470 elongase = test: Elongation of EPA by the elongase At3g06470 in yeast; conditions: yeast extracts after feeding of 250 μM EPA; second line of Table 20

B1: TL16y2: Δ5-elongase from Thraustochytrium ssp., SEQ ID NO: 83 (protein, listed as Thraustochytrium sp.)
chain: MDVVEQQWRRFVDAVDNGIVEFMEHEKPNKLNEGKLFTSTEEMMALIVGYLAFVVLGSAFMKAFVDKPFELKFLKLVHNIFLTGLSMYMATECARQAYLGGYKLFGNPMEKGTESHAPGMANIIYIFYVSKFLEFLDTVFMILGKKWKQLSFLHVYHHASISFIWGIIARFAPGGDAYFSTILNSSVHVVLYGYYASTTLGYTFMRPLRPYITTIQLTQFMAMVVQSVYDYYNPCDYPQPLVKLLFWYMLTMLGLFGNFFVQQYLKPKAPKKQKTI
modifications: CDS (1)..(831): Delta-5 elongase
TL16y2 Δ5-elongase; fed 50 μm EPA
  C20:5 (n-3), % areas in the gas-chromatographic analysis: 2.48%
  C22:5 (n-3), % areas in the gas-chromatographic analysis: 1.73%
TL16y2 Δ5-elongase; fed 250 μm ARA
  C20:4 (n-6), % areas in the gas-chromatographic analysis: 15.2%
  C20:5 (n-3), % areas in the gas-chromatographic analysis: 3.87%
TL16y2 Δ5-elongase; fed 250 μm EPA
  C20:5 (n-3), % areas in the gas-chromatographic analysis: 25.81%
  C22:5 (n-3), % areas in the gas-chromatographic analysis: 2.25%
TL16y2 Δ5-elongase; fed 250 μm GLA
  C18:3 (n-6), % areas in the gas-chromatographic analysis: 3.59%
  C20:3 (n-6), % areas in the gas-chromatographic analysis: 10.71%
TL16y2 Δ5-elongase; fed 250 μm SDA
  C18:4 (n-3), % areas in the gas-chromatographic analysis: 7.74%
  C20:4 (n-3), % areas in the gas-chromatographic analysis: 29.17%

B2: At3g06460: elongase from Arabidopsis thaliana, SEQ ID NO: 135 (protein, listed as Arabidopsis thaliana)
chain: MASVYSTLTYWLVHHPYIANFTWTEGETLGSTVFFVFVVVSLYLSATFLLRYTVDSLPTLGPRILKPITAVHSLILFLLSLTMAVGCTLSLISSSDPKARLFDAVCFPLDVKPKGPLFFWAQVFYLSKILEFVDTLLIILNKSIQRLSFLHVYHHATVVILCYLWLRTRQSMFPVGLVLNSTVHVIMYGYYFLCAIGSRPKWKKLVTNFQMVQFAFGMGLGAAWMLPEHYFGSGCAGIWTVYFNGVFTASLLALFYNFHSKNYEKTTTSPLYKIESFIFIHGERWANKAITLFSKKND
modifications: CDS (1)..(897): Delta-5 elongase
At3g06460 elongase
  C20:5n-3 content: 20.8
  C22:5n-3 content: 0.6
At3g06470 elongase
  C20:5n-3 content: 25.4
  C22:5n-3 content: 1.1
